Two sequences from PMC5915078 can be followed below.

By UniProt entry, the sequences of proteins in these tests, tags left out. Residues count along the entry.
UniProt Q15717, 106-243: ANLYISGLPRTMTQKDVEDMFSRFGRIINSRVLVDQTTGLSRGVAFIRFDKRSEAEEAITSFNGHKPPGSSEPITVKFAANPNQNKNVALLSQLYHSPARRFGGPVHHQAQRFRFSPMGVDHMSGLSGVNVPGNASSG
UniProt Q15717, 20-98: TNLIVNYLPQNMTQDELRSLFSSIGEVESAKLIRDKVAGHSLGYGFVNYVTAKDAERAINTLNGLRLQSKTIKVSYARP
UniProt Q15717, 106-186: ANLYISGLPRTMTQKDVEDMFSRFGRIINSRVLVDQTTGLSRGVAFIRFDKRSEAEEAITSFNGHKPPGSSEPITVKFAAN
UniProt Q15717, whole entry: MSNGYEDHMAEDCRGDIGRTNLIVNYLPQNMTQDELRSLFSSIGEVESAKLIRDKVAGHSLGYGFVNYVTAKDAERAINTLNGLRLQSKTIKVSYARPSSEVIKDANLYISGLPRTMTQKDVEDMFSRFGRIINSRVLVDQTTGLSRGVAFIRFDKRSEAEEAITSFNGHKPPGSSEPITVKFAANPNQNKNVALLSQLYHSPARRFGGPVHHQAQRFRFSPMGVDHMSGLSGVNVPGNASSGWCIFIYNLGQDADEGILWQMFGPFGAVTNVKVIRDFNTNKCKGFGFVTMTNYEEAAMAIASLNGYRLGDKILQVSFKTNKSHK
UniProt Q15717, 187-322: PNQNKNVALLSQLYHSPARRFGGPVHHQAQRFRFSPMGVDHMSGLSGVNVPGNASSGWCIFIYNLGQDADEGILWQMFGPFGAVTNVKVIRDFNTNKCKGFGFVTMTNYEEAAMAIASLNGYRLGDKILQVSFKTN

For at least one entry, the source does not settle the construct or the ends of the probe. For part of these data: No signal at the amounts used counts as a negative. For part of these data: Weaker means in comparison with the reference protein, sequence or condition of that experiment.

Common to all, as to experiment: EMSA
(In general: In EMSA bound probe runs differently from free probe, usually more slowly.)

In data set [1] the target is GST-HuR-RRM2+hinge (UniProt Q15717). Particulars: 1.0 ug protein; EMSA: 10 mM HEPES pH 7.6, 3 mM MgCl2, 40 mM KCl, 2 mM DTT, 5% glycerol, 0.5% Igepal, 30 min on ice, 6% native PAGE in TBE; recombinant protein; protein details: GST; label: 32P-UTP body label; probe letters rebuilt from the primers and the genome; part of a longer molecule.
Data set [2] has as its target GST-HuR-RRM1 (UniProt Q15717). Conditions: 1.0 ug protein; EMSA: 10 mM HEPES pH 7.6, 3 mM MgCl2, 40 mM KCl, 2 mM DTT, 5% glycerol, 0.5% Igepal, 30 min on ice, 6% native PAGE in TBE; recombinant protein; protein details: GST; label: 32P-UTP body label; probe letters rebuilt from the primers and the genome; part of a longer molecule.
Data set [3] addresses GST-HuR-RRM2 (UniProt Q15717). Particulars: 1.0 ug protein; EMSA: 10 mM HEPES pH 7.6, 3 mM MgCl2, 40 mM KCl, 2 mM DTT, 5% glycerol, 0.5% Igepal, 30 min on ice, 6% native PAGE in TBE; recombinant protein; protein details: GST; label: 32P-UTP body label; probe letters rebuilt from the primers and the genome; part of a longer molecule.
Data set [4] has as its target GST-HuR wild type (UniProt Q15717). Conditions: EMSA: 10 mM HEPES pH 7.6, 3 mM MgCl2, 40 mM KCl, 2 mM DTT, 5% glycerol, 0.5% Igepal, 30 min on ice, 6% native PAGE in TBE, recombinant protein, label: 32P-UTP body label, probe letters rebuilt from the primers and the genome, part of a longer molecule.
Data set [5] addresses GST-HuR-RRM3+hinge (UniProt Q15717). Particulars: 1.0 ug protein; EMSA: 10 mM HEPES pH 7.6, 3 mM MgCl2, 40 mM KCl, 2 mM DTT, 5% glycerol, 0.5% Igepal, 30 min on ice, 6% native PAGE in TBE; recombinant protein; protein details: GST; label: 32P-UTP body label; probe letters rebuilt from the primers and the genome; part of a longer molecule.

On to “GGGCGCAGGCGCAGGCGCAGUGUGCGUCCGCGUCUGAGGGGAGGGAUGUGGGGGAAGCGACGGCCCCCGGUUUGUUUGGGCUGUGGGCGGUGCGCAGCGGAGAGCCCGGGAAAAGCGGGAA [caspase-2 5'UTR F2]”, for which the binding result in data set [1] was “binds”; in data set [2], “no binding”; in data set [3], “no binding”; in data set [4] (strongest binding, non-denatured RNA), “binds”; in data set [5] it was “binds more weakly”.
“CUUUUGUCUGUCCGCCGAGCACCCCACUUCACCCCAUUGGACCGCGCGGCCGCCGCUAGAGCUCUGCGCCUGCGCACGCACCGGGCCGGGGACUGGGUGGCCUGGUGUGUGGGCGCGGCAGGGCGCAGGCGCAGGCGCAGUGUGCGUCCGC [caspase-2 5'UTR F1]”: the binding result in data set [4] is given as “no binding”.
